Data as given in PubChem BioAssay AID2685 (National Center for Advancing Translational Sciences (NCATS), 2010).
The list shows a part of the results. Shown are side measurements of this screen, not its main read-out; they come without a call. Compounds called inactive in the main read-out are mostly missing here. The note in brackets gives the kind of curve behind each potency; many fits are weak.

Experiment: qHTS Assay for Lipid Storage Modulators in Drosophila S3 Cells;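 for cell number change: cells counted by Cell Tracker Red CMTPX staining in the red channel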
Details: BODIPY lipid droplet fluorescence, 18-24 h; for cell number change: measured here: cell count max response, cells fed with added oleic acid
How it was run: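 Drosophila S3 cells got compounds at several concentrations plus oleic acid (400 uM solution). Laser-scanning cytometry with 488 nm excitation read lipid droplets at 500-530 nm and cells at 575-640 nm. Percent activity was relative to 20 uM Triacsin C.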

[1] = measured here: cell number channel AC50, cells fed with added oleic acid
[2] = measured here: lipid fluorescence (Fed channel) AC50, cells fed with added oleic acid

COc1cc(/C=N/NC(=O)c2ccccn2)ccc1OC(=O)c1ccccc1Br
cell number change: -38.6%
AC50 [1]: 29.1 µM [falling, single point]

COc1ccc(C(=O)N/C(=C\c2cccc3ccccc23)C(=O)N2CCN(C)CC2)cc1
cell number change: -4.26%
AC50 [2]: 0.651 µM [rising, single point]

CCOC(=O)N/N=C/c1ccc(N2CCOCC2)s1
cell number change: 5.91%
AC50 [2]: 0.103 µM [rising, single point]

CCN1CCN(C(=O)c2ccccc2N(Cc2ccccc2)S(C)(=O)=O)CC1
cell number change: -31.4%
AC50 [1]: 29.1 µM [falling, single point]
AC50 [2]: 0.0058 µM [falling, full curve, poor fit]

CCOc1ccc(N(CC(=O)Nc2cccc(N(C)S(C)(=O)=O)c2)S(=O)(=O)c2ccccc2)cc1
cell number change: -0.582%
AC50 [1]: 1.84 µM [rising, partial curve, poor fit]
AC50 [2]: 1.46 µM [rising, partial curve, poor fit]

O=C(NCCCNCc1ccccc1)c1ccncc1
cell number change: 7.74%

CC1CCCC(NC(=O)NC(=O)COC(=O)c2ccc(O)cc2O)C1C (stereo unspecified)
cell number change: -62.9%
AC50 [1]: 25.9 µM [falling, partial curve]
AC50 [2]: 0.164 µM [rising, full curve, poor fit]

CN(C(=O)c1ccc(NC(=O)Cc2ccc(NC(=O)C3CCN(C(=O)CCc4ccccc4)CC3)cc2)cc1)C1CC1
cell number change: -37.6%
AC50 [1]: 1.84 µM [falling, partial curve]
AC50 [2]: 1.84 µM [falling, partial curve, poor fit]

COC(=O)[C@H](CCSC)NC(=O)Nc1cccc(C)c1C
cell number change: -9.36%
AC50 [1]: 2.31 µM [falling, partial curve, poor fit]

Cc1cc(=O)oc2cc(OCc3ccc(C(=O)OCC(=O)Nc4ccccc4OC(F)F)cc3)ccc12
cell number change: 9.04%
AC50 [2]: 1.3 µM [falling, single point]

C=CCn1c(C)cc(C(=O)CSc2nnc(C3CC3)n2C2CC2)c1C
cell number change: -12.6%
AC50 [2]: 0.0517 µM [falling, full curve, poor fit]

C=CCSc1nc2sc3c(c2c(=O)n1-c1ccc(C)cc1)CCN(C)C3
AC50 [1]: 0.651 µM [rising, single point]
AC50 [2]: 0.517 µM [rising, partial curve, poor fit]

CC(C)Oc1cccc(C(=O)Nc2ccc(N3CCN(C)CC3)cc2)c1
cell number change: 7.62%
AC50 [2]: 4.11 µM [rising, single point]

COCCN(CC(=O)NCC1CCCO1)C(=O)CCC(=O)Nc1ccccn1 (stereo unspecified)
cell number change: 5.35%

O=C(O)c1ccc(/C=N/NC(=O)c2cc(-c3cccs3)nc3ccccc23)cc1
cell number change: -18%
